Test results from patent US7786097B2, “Tricyclic compounds, compositions and methods” (Pfizer Inc., priority 2007, dated 2010).

Experiment: Dissociation index (side-effect biomarker / anti-inflammatory biomarker)
Format: in vivo, mice
Settings: compound DI divided by prednisolone DI

Cc1c(NC(=O)c2ccc3c(c2)CC[C@@H]2C[C@@](O)(C(F)(F)F)CC[C@@]32Cc2ccccc2)ccc[n+]1[O-] [Comparator G]
Corrected Dissociation Index OC/TNFα (ED50): 0.35 | Corrected Dissociation Index OC/TNFα (ED80): 0.67
